Results deposited as PubChem BioAssay AID652243 (Drosophila RNAi Screening Center, 2013)
In all, the deposit lists about 24,000 reagents; this is a random part of those with a known target gene and a result. Over the whole deposit, 246 (1%) got an active call. 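Plates not normalised; calls are printed but the firefly/Renilla ratio behind them is not deposited; fold cut for lowering reported inconsistently.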 The raw values are shown without normalisation. Entries without a mark were called inactive. Not given: the amount of reagent.

- Test: 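Knock-downs that decrease or increase androgen receptor reporter signal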 (primary screen)
- Cell system: Drosophila S2R+ cells
- Knock-down reagent: long dsRNA against Drosophila genes
- Duration: 72 h (48 h, then 24 h hormone)
- Challenge: synthetic androgen R1881 at 10 nM for 24 h
- Measurement: 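Firefly light from an androgen-responsive reporter and Renilla control light per well, raw and unnormalised, for each of two replicates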
- Scale: firefly reporter light: higher = more light from androgen-responsive reporter; Renilla control light: higher = more constitutive control signal (cell number, transfection)
- Call rule: 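Across duplicate plates, a knock-down whose log firefly/Renilla ratio shifted a set fold down or up from the GFP/LacZ control mean was a hit; the downward cut appears as both 1.5 and 3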
- Meaning of the calls: active = hit: reporter lowered or raised; inactive = no hit

{"predicted target":"CG9993","dsRNA":"DRSC04599","firefly reporter light, replicate 1":2.42e5,"firefly reporter light, replicate 2":1.61e5,"Renilla control light, replicate 1":1.44e6,"Renilla control light, replicate 2":1.25e6}
{"predicted target":"Leash","dsRNA":"DRSC15617","firefly reporter light, replicate 1":95225,"firefly reporter light, replicate 2":1.03e5,"Renilla control light, replicate 1":1.89e6,"Renilla control light, replicate 2":1.95e6}
{"predicted target":"Leash","dsRNA":"DRSC28712","firefly reporter light, replicate 1":4.86e5,"firefly reporter light, replicate 2":3.04e5,"Renilla control light, replicate 1":1.24e6,"Renilla control light, replicate 2":1.09e6}
{"predicted target":"B-H1 (BarH1)","dsRNA":"DRSC21922","firefly reporter light, replicate 1":7.01e5,"firefly reporter light, replicate 2":7.35e5,"Renilla control light, replicate 1":1.59e6,"Renilla control light, replicate 2":1.46e6}
{"predicted target":"B-H1 (BarH1)","dsRNA":"DRSC27190","firefly reporter light, replicate 1":3.58e5,"firefly reporter light, replicate 2":4.34e5,"Renilla control light, replicate 1":8.01e5,"Renilla control light, replicate 2":7.82e5}
{"predicted target":"Pxd (Peroxidase)","dsRNA":"DRSC16805","firefly reporter light, replicate 1":77919,"firefly reporter light, replicate 2":65723,"Renilla control light, replicate 1":1.73e6,"Renilla control light, replicate 2":1.67e6}
{"predicted target":"Vlet (Valette)","dsRNA":"DRSC19845","firefly reporter light, replicate 1":1.04e5,"firefly reporter light, replicate 2":99913,"Renilla control light, replicate 1":8.87e5,"Renilla control light, replicate 2":9.34e5}
{"predicted target":"Vlet (Valette)","dsRNA":"DRSC26731","firefly reporter light, replicate 1":4.80e5,"firefly reporter light, replicate 2":6.06e5,"Renilla control light, replicate 1":7.19e5,"Renilla control light, replicate 2":7.74e5}
{"predicted target":"Atf6","dsRNA":"DRSC04743","firefly reporter light, replicate 1":5.68e5,"firefly reporter light, replicate 2":9.51e5,"Renilla control light, replicate 1":1.10e6,"Renilla control light, replicate 2":1.92e6}
{"predicted target":"Atf6","dsRNA":"DRSC04889","firefly reporter light, replicate 1":3.36e5,"firefly reporter light, replicate 2":5.20e5,"Renilla control light, replicate 1":2.16e6,"Renilla control light, replicate 2":2.29e6}
{"predicted target":"Atf6","dsRNA":"DRSC28936","firefly reporter light, replicate 1":4.95e5,"firefly reporter light, replicate 2":3.36e5,"Renilla control light, replicate 1":9.56e5,"Renilla control light, replicate 2":9.92e5}
{"predicted target":"thoc7","dsRNA":"DRSC08512","firefly reporter light, replicate 1":6.21e5,"firefly reporter light, replicate 2":6.62e5,"Renilla control light, replicate 1":1.36e6,"Renilla control light, replicate 2":6.20e5}
{"predicted target":"thoc7","dsRNA":"DRSC29470","firefly reporter light, replicate 1":6.05e5,"firefly reporter light, replicate 2":6.03e5,"Renilla control light, replicate 1":7.53e5,"Renilla control light, replicate 2":7.53e5}

2 entries from above, ordered by “firefly reporter light, replicate 1”, descending:
{"predicted target":"Atf6","dsRNA":"DRSC04743","firefly reporter light, replicate 1":5.68e5,"firefly reporter light, replicate 2":9.51e5,"Renilla control light, replicate 1":1.10e6,"Renilla control light, replicate 2":1.92e6}
{"predicted target":"Vlet (Valette)","dsRNA":"DRSC26731","firefly reporter light, replicate 1":4.80e5,"firefly reporter light, replicate 2":6.06e5,"Renilla control light, replicate 1":7.19e5,"Renilla control light, replicate 2":7.74e5}

Further results:
{"predicted target":"CG11638","dsRNA":"DRSC18167","firefly reporter light, replicate 1":2.85e5,"firefly reporter light, replicate 2":2.93e5,"Renilla control light, replicate 1":5.00e6,"Renilla control light, replicate 2":3.37e6}
{"predicted target":"CG11638","dsRNA":"DRSC18640","firefly reporter light, replicate 1":2.54e5,"firefly reporter light, replicate 2":3.49e5,"Renilla control light, replicate 1":2.04e6,"Renilla control light, replicate 2":1.34e6}
{"predicted target":"RhoGAP54D (Rho GTPase activating protein at 54D)","dsRNA":"DRSC06990","firefly reporter light, replicate 1":46343,"firefly reporter light, replicate 2":60591,"Renilla control light, replicate 1":1.01e6,"Renilla control light, replicate 2":1.01e6}
{"predicted target":"RhoGAP54D (Rho GTPase activating protein at 54D)","dsRNA":"DRSC26684","firefly reporter light, replicate 1":2.65e5,"firefly reporter light, replicate 2":2.16e5,"Renilla control light, replicate 1":6.27e5,"Renilla control light, replicate 2":6.08e5}
{"predicted target":"Glut1 (Glucose transporter 1)","dsRNA":"DRSC07927","firefly reporter light, replicate 1":1.16e5,"firefly reporter light, replicate 2":1.80e5,"Renilla control light, replicate 1":3.05e5,"Renilla control light, replicate 2":3.68e5}
{"predicted target":"Glut1 (Glucose transporter 1)","dsRNA":"DRSC08378","firefly reporter light, replicate 1":61741,"firefly reporter light, replicate 2":87550,"Renilla control light, replicate 1":8.88e5,"Renilla control light, replicate 2":9.06e5}
{"predicted target":"Glut1 (Glucose transporter 1)","dsRNA":"DRSC08662","firefly reporter light, replicate 1":1.24e6,"firefly reporter light, replicate 2":1.49e6,"Renilla control light, replicate 1":2.19e6,"Renilla control light, replicate 2":2.00e6}
{"predicted target":"Glut1 (Glucose transporter 1)","dsRNA":"DRSC27241","firefly reporter light, replicate 1":2.74e5,"firefly reporter light, replicate 2":2.67e5,"Renilla control light, replicate 1":7.35e5,"Renilla control light, replicate 2":7.45e5}
{"predicted target":"Glut1 (Glucose transporter 1)","dsRNA":"DRSC39042","firefly reporter light, replicate 1":1.06e6,"firefly reporter light, replicate 2":9.08e5,"Renilla control light, replicate 1":2.45e6,"Renilla control light, replicate 2":2.76e6}
